These results are taken from PMC8383118.

The series concerns the target T1, Prx (paratox) (Streptococcus pyogenes MGAS315 (prophage)) (UniProt A0A0H2UWN8).
T1 sequence (looked up, limits assumed): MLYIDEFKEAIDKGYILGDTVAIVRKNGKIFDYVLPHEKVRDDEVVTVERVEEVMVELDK
In words: EMSA. The conditions noted are these: Prx alone; 8 uM XIP, 100 ng FAM-DNA, 15-30 min incubation; 5% native PAGE, 100 V, 50 min, 4 C; recombinant protein; protein details: His-tag; label: 5' FAM (reverse primer); probe letters rebuilt from the primers and the genome.

Construct, isoform or probe ends are uncertain for at least one entry. A negative result means that nothing was seen under these conditions. At least one verdict rests on a figure or table, not on a statement of the authors. Tags and fusion partners may be left off the protein sequences shown.

Regarding “CCTGTTATTCTCCTTTCTTTTTGATATCATTCATTATAAATGATCCTTCAAAAAAAGAACAGGACATTTATGTCCCGTTCTGAGAATCTTTTTGCCATTCTTTCTCCAAATTTTCTCTTAAATTAATGTTTTCTGTTAACTGGGCAAATAAGATAGCAGCATCATAGCTCTTTTTAGCTTCCGCATAATCTTTTTCAACAAATAAATGATGCTTCCATGTCAGAAGATTAACAATAGGCTTTTTTTGAAAATCATGAGTTCTATCCATGATTTTATTGCTGACAGCAATAAGCTGCTTAACAAAATCATATTTTTTCAATTCTAAGAGGAGTCCAAAATTATTCAATAAAACATTATTTAAAACGAAAAGATCTTCCAATGGAAGGCAGTCTACCTGCTT (double strand) [comS promoter probe (PcomS)]”, the binding result is listed as “no binding”.
